Measured values from PubChem BioAssay AID330 (DTP/NCI, 2004).
The list shows only some results of the screen, not a fair sample: it gathers tests that were run many times, whatever their T/C, doses with no T/C, and many T/C values between a quarter and a half above the control. Further doses and runs are listed elsewhere. T/C is the treated group as % of the vehicle group. Some entries give survivors of the animals treated and no T/C: the source holds a T/C of zero for them, seemingly a mark for toxic or unscored doses. Some doses without a T/C left all or most animals alive at the check, yet need not have been tolerated: survival well below the control is almost never listed, so the zero probably covers shortened survival too. Survivors were counted at the toxicity check, usually on the fifth day, unless a day is given; later deaths do not show. Schedule codes are those of the source, read here as Q, the interval in days (D) or hours (H), X, the number of doses. For survival time, the PubChem record calls one and a half times the control and up active, and a quarter to a half above the control has no call in these data; cut-offs in other NCI protocols can differ. Signs of the kind (2×) stand for listed records that agree. Some T/C values carry the count of animals alive at the toxicity check (mostly the fifth day); where none is given, no animal had died by that day. Some entries were tested several times; their values stand side by side, smallest first.

Test system: P388 leukemia ip, CD2F1 mice, survival T/C
Test: NCI In Vivo Anticancer Drug Screen. Data for tumor model P388 Leukemia (intraperitoneal) in CD2F1 (CDF1) mice
Details: T/C endpoint: median survival time, higher T/C = longer survival
[1] = dose: 10.0 mg/kg/injection, schedule: Q01DX009 (ip), vehicle: saline + alcohol

## O=NN(CCCl)C(=O)NCCCl
dose: 1.88 mg/kg/injection, schedule: Q04DX003 (ip), vehicle: saline
  T/C: 145 % of control
dose: 2.0 mg/kg/injection, schedule: Q01DX001 (ip), vehicle: saline with Tween-80
  T/C: 125 % of control
dose: 2.0 mg/kg/injection, schedule: Q01DX005 (ip), vehicle: saline + alcohol
  T/C: 130 % of control
dose: 2.0 mg/kg/injection, schedule: Q01DX009 (ip), vehicle: Klucel (hydroxypropylcellulose) (HPC)
  T/C: 125, 161, 162, 166 % of control
dose: 2.0 mg/kg/injection, schedule: Q01DX009 (ip), vehicle: saline + alcohol, evaluated on day 30
  T/C: 161, 164, 167, 173, 194 % of control
dose: 2.0 mg/kg/injection, schedule: Q01DX009 (ip), vehicle: saline + alcohol, evaluated on day 35
  T/C: 148 % of control
dose: 2.0 mg/kg/injection, schedule: Q01DX009 (ip), vehicle: saline + alcohol, evaluated on day 45
  T/C: 177 % of control
dose: 2.0 mg/kg/injection, schedule: Q01DX009 (ip), vehicle: saline, evaluated on day 30
  T/C: 157, 163 [5 of 6 alive], 167, 172, 178, 179, 182, 186, 187, 210, 271, 274 % of control
dose: 2.0 mg/kg/injection, schedule: Q01DX009 (ip), vehicle: saline, evaluated on day 60
  T/C: 145, 159, 160, 162 % of control
dose: 2.5 mg/kg/injection, schedule: Q04DX003 (ip), vehicle: saline + alcohol
  T/C: 148 % of control
dose: 3.3 mg/kg/injection, schedule: Q01DX009 (ip), vehicle: Klucel (hydroxypropylcellulose) (HPC)
  T/C: 133 % of control
dose: 3.3 mg/kg/injection, schedule: Q01DX009 (ip), vehicle: saline + alcohol
  T/C: 126 % of control
dose: 3.75 mg/kg/injection, schedule: Q01DX001 (iv), vehicle: saline + alcohol
  T/C: 125 % of control
dose: 3.89 mg/kg/injection, schedule: Q04DX002 (ip), vehicle: saline + alcohol
  T/C: 148 % of control
dose: 4.0 mg/kg/injection, schedule: Q01DX001 (ip), vehicle: Klucel (hydroxypropylcellulose) (HPC)
  T/C: 142 % of control
dose: 4.0 mg/kg/injection, schedule: Q01DX001 (ip), vehicle: saline + alcohol
  T/C: 130 % of control
dose: 4.0 mg/kg/injection, schedule: Q01DX001 (ip), vehicle: saline with Tween-80, evaluated on day 5
  T/C: 153 and 164 % of control
dose: 4.0 mg/kg/injection, schedule: Q01DX001 (ip), vehicle: saline with Tween-80, evaluated on day 30
  T/C: 144 % of control
dose: 4.0 mg/kg/injection, schedule: Q01DX001 (ip), vehicle: saline with Tween-80, evaluated on day 60
  T/C: 145 % of control
dose: 4.0 mg/kg/injection, schedule: Q01DX001 (ip), vehicle: suspension in saline
  T/C: 132 % of control
dose: 4.0 mg/kg/injection, schedule: Q01DX001 (ip), vehicle: water
  T/C: 147 % of control
dose: 4.0 mg/kg/injection, schedule: Q01DX009 (ip), vehicle: Klucel (hydroxypropylcellulose) (HPC)
  T/C: 157 [5 of 6 alive], 193, 209, 211 % of control
dose: 4.0 mg/kg/injection, schedule: Q01DX009 (ip), vehicle: saline + alcohol, evaluated on day 30
  T/C: 184, 201, 214, 230, 252 % of control
dose: 4.0 mg/kg/injection, schedule: Q01DX009 (ip), vehicle: saline + alcohol, evaluated on day 35
  T/C: 188 % of control
dose: 4.0 mg/kg/injection, schedule: Q01DX009 (ip), vehicle: saline + alcohol, evaluated on day 45
  T/C: 231 % of control
dose: 4.0 mg/kg/injection, schedule: Q01DX009 (ip), vehicle: saline, evaluated on day 30
  T/C: 165, 193, 221, 232, 239, 246, 250, 252, 266, 290, 315 [5 of 6 alive], 322 % of control
dose: 4.0 mg/kg/injection, schedule: Q01DX009 (ip), vehicle: saline, evaluated on day 60
  T/C: 209, 220, 252, 301 % of control
dose: 5.0 mg/kg/injection, schedule: Q01DX001 (ip), vehicle: saline + alcohol
  T/C: 130 and 132 % of control
dose: 7.5 mg/kg/injection, schedule: Q01DX005 (ip), vehicle: saline + alcohol, evaluated on day 30
  T/C: 222 % of control
dose: 7.5 mg/kg/injection, schedule: Q01DX005 (ip), vehicle: saline + alcohol, evaluated on day 35
  T/C: 300 % of control
dose: 7.5 mg/kg/injection, schedule: Q01DX005 (ip), vehicle: saline + alcohol, evaluated on day 60
  T/C: 221 and 241 % of control
dose: 7.5 mg/kg/injection, schedule: Q01DX009 (ip), vehicle: saline + alcohol, evaluated on day 30
  T/C: 277 % of control
dose: 7.5 mg/kg/injection, schedule: Q01DX009 (ip), vehicle: saline + alcohol, evaluated on day 35
  T/C: 288 % of control
dose: 7.5 mg/kg/injection, schedule: Q01DX009 (ip), vehicle: saline + alcohol, evaluated on day 60
  T/C: 255 and 293 % of control
dose: 8.0 mg/kg/injection, schedule: Q01DX001 (ip), vehicle: saline + alcohol, evaluated on day 9
  T/C: 112 and 183 % of control
dose: 8.0 mg/kg/injection, schedule: Q01DX001 (ip), vehicle: saline + alcohol, evaluated on day 30
  T/C: 144 and 153 % of control
dose: 8.0 mg/kg/injection, schedule: Q01DX001 (ip), vehicle: saline with Tween-80, evaluated on day 5
  T/C: 170 and 180 % of control
dose: 8.0 mg/kg/injection, schedule: Q01DX001 (ip), vehicle: saline with Tween-80, evaluated on day 30
  T/C: 183 % of control
dose: 8.0 mg/kg/injection, schedule: Q01DX001 (ip), vehicle: saline with Tween-80, evaluated on day 60
  T/C: 184 % of control
dose: 8.0 mg/kg/injection, schedule: Q01DX009 (ip), vehicle: Klucel (hydroxypropylcellulose) (HPC)
  T/C: 222, 234, 253, 277 % of control
dose: 8.0 mg/kg/injection, schedule: Q01DX009 (ip), vehicle: saline + alcohol, evaluated on day 30
  T/C: 119, 129, 143, 214, 245 % of control
dose: 8.0 mg/kg/injection, schedule: Q01DX009 (ip), vehicle: saline + alcohol, evaluated on day 35
  T/C: 326 % of control
dose: 8.0 mg/kg/injection, schedule: Q01DX009 (ip), vehicle: saline + alcohol, evaluated on day 45
  T/C: 224 % of control
dose: 8.0 mg/kg/injection, schedule: Q01DX009 (ip), vehicle: saline, evaluated on day 30
  T/C: 92, 123, 130, 219, 230, 245, 250, 270 (2×), 288, 291, 315 % of control
dose: 8.0 mg/kg/injection, schedule: Q01DX009 (ip), vehicle: saline, evaluated on day 60
  T/C: 223, 341, 519, 535 % of control
dose: 10.0 mg/kg/injection, schedule: Q01DX001 (ip), vehicle: saline + alcohol, evaluated on day 30
  T/C: 144 and 168 % of control
dose: 10.0 mg/kg/injection, schedule: Q01DX001 (ip), vehicle: saline + alcohol, evaluated on day 60
  T/C: 170 and 202 % of control
dose: 10.0 mg/kg/injection, schedule: Q01DX005 (ip), vehicle: saline + alcohol, evaluated on day 30
  T/C: 89, 126, 197, 203 (2×), 212 [5 of 6 alive], 218, 240, 254, 260, 265, 270, 273, 274, 285 (2×), 294, 297 (2×), 300 (4×), 309 % of control
dose: 10.0 mg/kg/injection, schedule: Q01DX005 (ip), vehicle: saline + alcohol, evaluated on day 60
  T/C: 555 % of control
dose: 10.0 mg/kg/injection, schedule: Q01DX005 (ip), vehicle: saline + alcohol
  survivor count: 6 of 6
[1]
  T/C: 86, 91, 100, 126, 176, 188, 198, 228, 238, 265, 276 (2×), 285, 290, 294, 297 (2×), 300 (4×), 303, 309 % of control
  survivor count: 6 of 6
dose: 15.0 mg/kg/injection, schedule: Q01DX005 (ip), vehicle: saline + alcohol, evaluated on day 30
  T/C: 130, 156 [5 of 6 alive], 202, 203, 220, 238, 265, 268, 270, 277, 283, 285 (2×), 294 (2×), 297 (3×), 300 (4×), 309 % of control
dose: 15.0 mg/kg/injection, schedule: Q01DX005 (ip), vehicle: saline + alcohol, evaluated on day 35
  T/C: 350 % of control
dose: 15.0 mg/kg/injection, schedule: Q01DX005 (ip), vehicle: saline + alcohol, evaluated on day 60
  T/C: 109 and 550 % of control
dose: 15.0 mg/kg/injection, schedule: Q01DX009 (ip), vehicle: saline + alcohol, evaluated on day 30
  T/C: 86, 87, 101, 110, 116, 125, 126, 128, 131, 132, 140, 158, 171, 172, 191, 194, 285, 294, 297, 300 % of control (3×)
dose: 15.0 mg/kg/injection, schedule: Q01DX009 (ip), vehicle: saline + alcohol, evaluated on day 35
  T/C: 114 % of control
dose: 15.0 mg/kg/injection, schedule: Q01DX009 (ip), vehicle: saline + alcohol, evaluated on day 60
  T/C: 106 and 112 % of control
dose: 16.0 mg/kg/injection, schedule: Q01DX001 (ip), vehicle: saline + alcohol, evaluated on day 9
  T/C: 155 % of control (2×)
